Results as given in patent US11000514B2, “Antifungal compounds” (Duke University, priority 2014, dated 2021).
Some results were stated once for a whole list of compounds, not compound by compound.

system: IL2; experiment: IL2 IC50 determination; type: cell-based; conditions: range in words

Row | Compound | IL2 IC50
1 | CCO/N=C1/C[C@H](O)[C@@H](C)[C@@H](/C(C)=C/[C@@H]2CC[C@@H](O)[C@H](OC)C2)OC(=O)[C@@H]2CCCCN2C(=O)C(=O)[C@]2(O)O[C@H]([C@@H](OC)C[C@@H](C)C/C(C)=C/[C@H]1CC)[C@@H](OC)C[C@H]2C [Compound 115] | nanomolar
2 | CCCO/N=C1/C[C@H](O)[C@@H](C)[C@@H](/C(C)=C/[C@@H]2CC[C@@H](O)[C@H](OC)C2)OC(=O)[C@@H]2CCCCN2C(=O)C(=O)[C@]2(O)O[C@H]([C@@H](OC)C[C@@H](C)C/C(C)=C/[C@H]1CC)[C@@H](OC)C[C@H]2C [Compound 117] | nanomolar
3 | CC[C@@H]1/C=C(\C)C[C@H](C)C[C@H](OC)[C@H]2O[C@@](O)(C(=O)C(=O)N3CCCC[C@H]3C(=O)O[C@H]([C@@H](C)[C@H](O)/C(C)=C/[C@@H]3CC[C@@H](O)[C@H](OC)C3)C[C@H]1O)[C@H](C)C[C@@H]2OC [Compound 118] | nanomolar
4 | C/C=C/C[C@@H]1/C=C(\C)C[C@H](C)C[C@H](OC)[C@H]2O[C@@](O)(C(=O)C(=O)N3CCCC[C@H]3C(=O)O[C@H](/C(C)=C/[C@@H]3CC[C@@H](O)[C@H](OC)C3)[C@H](C)[C@@H](O)C/C1=N/O)[C@H](C)C[C@@H]2OC [Compound 120] | nanomolar
5 | CO[C@H]1C[C@@H](C)C/C(C)=C/[C@@H](CC=C(C)C)/C(=N\O)C[C@H](O)[C@@H](C)[C@@H](/C(C)=C/[C@@H]2CC[C@@H](O)[C@H](OC)C2)OC(=O)[C@@H]2CCCCN2C(=O)C(=O)[C@]2(O)O[C@H]1[C@@H](OC)C[C@H]2C [Compound 122] | nanomolar
6 | CC[C@@H]1/C=C(\C)C[C@H](C)C[C@H](OC)[C@H]2O[C@@](O)(C(=O)C(=O)N3CCCC[C@H]3C(=O)O[C@H](/C(C)=C/[C@@H]3CC[C@@H](O)[C@H](OC)C3)[C@H](C)/C=C/C1=N/OC)[C@H](C)C[C@@H]2OC [Compound 125] | nanomolar
7 | CC[C@@H]1/C=C(\C)C[C@H](C)C[C@H](OC)[C@H]2O[C@@](O)(C(=O)C(=O)N3CCCC[C@H]3C(=O)O[C@H](/C(C)=C/[C@@H]3CC[C@@H](O)[C@H](OC)C3)[C@H](C)[C@@H](O)C/C1=N/N=C(C)C)[C@H](C)C[C@@H]2OC [Compound 126] | subnanomolar
8 | CO[C@H]1C[C@@H](C)C/C(C)=C/[C@@H](CC(=O)O)C(=O)C[C@H](O)[C@@H](C)[C@@H](/C(C)=C/[C@@H]2CC[C@@H](O)[C@H](OC)C2)OC(=O)[C@@H]2CCCCN2C(=O)C(=O)[C@]2(O)O[C@H]1[C@@H](OC)C[C@H]2C [Compound 127] | nanomolar
9 | CC[C@@H]1/C=C(\C)C[C@H](C)C[C@H](OC)[C@H]2O[C@@](O)(C(=O)C(=O)N3CCCC[C@H]3C(=O)O[C@H](/C(C)=C/[C@@H]3CC[C@@H](O)[C@H](OC)C3)[C@H](C)CCC1=O)[C@H](C)C[C@@H]2OC [Compound 129] | subnanomolar
10 | C=CC[C@@H]1/C=C(\C)C[C@H](C)C[C@H](OC)[C@H]2O[C@@](O)(C(=O)C(=O)N3CCCC[C@H]3C(=O)O[C@H](/C(C)=C/[C@@H]3CC[C@@H](O)[C@H](OC)C3)[C@H](C)[C@@H](O)C/C1=N/NC)[C@H](C)C[C@@H]2OC [Compound 130] | nanomolar
11 | C=CC[C@@H]1/C=C(\C)C[C@H](C)C[C@H](OC)[C@H]2O[C@@](O)(C(=O)C(=O)N3CCCC[C@H]3C(=O)O[C@H](/C(C)=C/[C@@H]3CC[C@@H](O)[C@H](OC)C3)[C@H](C)[C@@H](O)C/C1=N/NC(C)C)[C@H](C)C[C@@H]2OC [Compound 132] | subnanomolar
12 | CC[C@@H]1/C=C(\C)C[C@H](C)C[C@H](OC)[C@H]2O[C@@](O)(C(=O)C(=O)N3CCCC[C@H]3C(=O)O[C@H](/C(C)=C/[C@@H]3CC[C@@H](O)[C@H](OC)C3)[C@H](C)[C@@H](O)C/C1=C/C#N)[C@H](C)C[C@@H]2OC [Compound 133] | nanomolar
13 | CC[C@@H]1/C=C(\C)C[C@H](C)C[C@H](OC)[C@H]2O[C@@](O)(C(=O)C(=O)N3CCCC[C@H]3C(=O)O[C@H](/C(C)=C/[C@@H]3CC[C@@H](OC(=S)Oc4ccccc4)[C@H](OC)C3)[C@H](C)[C@@H](O)CC1=O)[C@H](C)C[C@@H]2OC [Compound 136] | nanomolar
14 | C=CC[C@@H]1/C=C(\C)C[C@H](C)C[C@H](OC)[C@H]2O[C@@](O)(C(=O)C(=O)N3CCCC[C@H]3C(=O)O[C@H](/C(C)=C/[C@@H]3CC[C@@H](OC(=S)Oc4ccccc4)[C@H](OC)C3)[C@H](C)[C@@H](O)CC1=O)[C@H](C)C[C@@H]2OC [Compound 137] | nanomolar
15 | CC[C@@H]1/C=C(\C)C[C@H](C)C[C@H](OC)[C@H]2O[C@@](O)(C(=O)C(=O)N3CCCC[C@H]3C(=O)O[C@H](/C(C)=C/[C@@H]3CCC[C@H](OC)C3)[C@H](C)[C@@H](O)CC1=O)[C@H](C)C[C@@H]2OC [Compound 138] | subnanomolar
16 | C=CC[C@@H]1/C=C(\C)C[C@H](C)C[C@H](OC)[C@H]2O[C@@](O)(C(=O)C(=O)N3CCCC[C@H]3C(=O)O[C@H](/C(C)=C/[C@@H]3CCC[C@H](OC)C3)[C@H](C)[C@@H](O)CC1=O)[C@H](C)C[C@@H]2OC [Compound 140] | subnanomolar
17 | C=CC[C@@H]1/C=C(\C)C[C@H](C)C[C@H](OC)[C@H]2O[C@@](O)(C(=O)C(=O)N3CCCC[C@H]3C(=O)O[C@H](/C(C)=C/[C@@H]3CC[C@@H](O)[C@H](OC)C3)[C@H](C)[C@@H](O)C/C1=N/OCCF)[C@H](C)C[C@@H]2OC [Compound 142] | nanomolar

Row | Compound | IL2 IC50
18 | C=CC[C@@H]1/C=C(\C)C[C@H](C)C[C@H](OC)[C@H]2O[C@@](O)(C(=O)C(=O)N3CCCC[C@H]3C(=O)O[C@H](/C(C)=C/[C@@H]3CCC(=O)[C@H](OC)C3)[C@H](C)C(=O)CC1=O)[C@H](C)C[C@@H]2OC [Compound 143] | nanomolar
19 | C=CC[C@@H]1/C=C(\C)C[C@H](C)C[C@H](OC)[C@H]2O[C@@](O)(C(=O)C(=O)N3CCCC[C@H]3C(=O)O[C@H](/C(C)=C/[C@@H]3CCC[C@H](OC)C3)[C@H](C)[C@@H](O)C/C1=N/O)[C@H](C)C[C@@H]2OC [Compound 144] | nanomolar
20 | CC[C@@H]1/C=C(\C)C[C@H](C)C[C@H](OC)[C@H]2O[C@@](O)(C(=O)C(=O)N3CCCC[C@H]3C(=O)O[C@H](/C(C)=C/[C@@H]3CC[C@@H](O)[C@H](OC)C3)[C@H](C)[C@@H](O)C/C1=N/OCC#N)[C@H](C)C[C@@H]2OC [Compound 146] | nanomolar
21 | CC[C@@H]1/C=C(\C)C[C@H](C)C[C@H](OC)[C@H]2O[C@@](O)(C(=O)C(=O)N3CCCC[C@H]3C(=O)O[C@H](/C(C)=C/[C@@H]3CCC[C@H](OC)C3)[C@H](C)[C@@H](OC(C)=O)CC1=O)[C@H](C)C[C@@H]2OC [Compound 148] | nanomolar
22 | C=CCO/N=C1/C[C@H](O)[C@@H](C)[C@@H](/C(C)=C/[C@@H]2CC[C@@H](O)[C@H](OC)C2)OC(=O)[C@@H]2CCCCN2C(=O)C(=O)[C@]2(O)O[C@H]([C@@H](OC)C[C@@H](C)C/C(C)=C/[C@H]1CC)[C@@H](OC)C[C@H]2C [Compound 149] | nanomolar
23 | C=CC[C@@H]1/C=C(\C)C[C@H](C)C[C@H](OC)[C@H]2O[C@@](O)(C(=O)C(=O)N3CCCC[C@H]3C(=O)O[C@H](/C(C)=C/[C@@H]3CC[C@H](F)[C@H](OC)C3)[C@H](C)[C@@H](O)CC1=O)[C@H](C)C[C@@H]2OC [Compound 151] | subnanomolar
24 | C#CCO/N=C1/C[C@H](O)[C@@H](C)[C@@H](/C(C)=C/[C@@H]2CC[C@@H](O)[C@H](OC)C2)OC(=O)[C@@H]2CCCCN2C(=O)C(=O)[C@]2(O)O[C@H]([C@@H](OC)C[C@@H](C)C/C(C)=C/[C@H]1CC)[C@@H](OC)C[C@H]2C [Compound 152] | nanomolar
25 | CC[C@@H]1/C=C(\C)C[C@H](C)C[C@H](OC)[C@H]2O[C@@](O)(C(=O)C(=O)N3CCCC[C@H]3C(=O)O[C@H](/C(C)=C/[C@@H]3CCC[C@H](OC)C3)[C@H](C)[C@@H](O)C/C1=N/O)[C@H](C)C[C@@H]2OC [Compound 157] | nanomolar
26 | C=CC[C@@H]1/C=C(\C)C[C@H](C)C[C@H](OC)[C@H]2O[C@@](O)(C(=O)C(=O)N3CCCC[C@H]3C(=O)O[C@H](/C(C)=C/[C@@H]3CC[C@@H](O)[C@H](OC)C3)[C@H](C)C(=O)CC1=O)[C@H](C)C[C@@H]2OC [Compound 160] | nanomolar
27 | CC[C@@H]1/C=C(\C)C[C@H](C)C[C@H](OC)[C@H]2O[C@@](O)(C(=O)C(=O)N3CCCC[C@H]3C(=O)O[C@H](/C(C)=C/[C@@H]3CCC[C@H](OC)C3)[C@H](C)C(=O)CC1=O)[C@H](C)C[C@@H]2OC [Compound 162] | nanomolar
28 | C=CC[C@@H]1/C=C(\C)C[C@H](C)C[C@H](OC)[C@H]2O[C@@](O)(C(=O)C(=O)N3CCCC[C@H]3C(=O)O[C@H](/C(C)=C/[C@@H]3CCC(=C)[C@H](OC)C3)[C@H](C)[C@@H](O)CC1=O)[C@H](C)C[C@@H]2OC [Compound 163] | subnanomolar
29 | C=CC[C@@H]1/C=C(\C)C[C@H](C)C[C@H](OC)[C@H]2O[C@@](O)(C(=O)C(=O)N3CCCC[C@H]3C(=O)O[C@H](/C(C)=C/[C@@H]3CC[C@@H](OC(=O)CC(C)C)[C@H](OC)C3)[C@H](C)[C@@H](O)CC1=O)[C@H](C)C[C@@H]2OC [Compound 165] | nanomolar
30 | C=CC[C@@H]1/C=C(\C)C[C@H](C)C[C@H](OC)[C@H]2O[C@@](O)(C(=O)C(=O)N3CCCC[C@H]3C(=O)O[C@H](/C(C)=C/[C@@H]3CC[C@@H](OC(=O)CC(C)(C)C)[C@H](OC)C3)[C@H](C)[C@@H](O)CC1=O)[C@H](C)C[C@@H]2OC [Compound 166] | nanomolar
31 | CC[C@@H]1/C=C(\C)C[C@H](C)C[C@H](OC)[C@H]2O[C@@](O)(C(=O)C(=O)N3CCCC[C@H]3C(=O)O[C@H](/C(C)=C/[C@@H]3CCC[C@H](OC)C3)[C@H](C)/C=C/C1=O)[C@H](C)C[C@@H]2OC [Compound 167] | nanomolar
32 | CO[C@H]1C[C@@H](C)C/C(C)=C/[C@@H](CC(O)CO)C(=O)C[C@H](O)[C@@H](C)[C@@H](/C(C)=C/[C@@H]2CC[C@@H](O)[C@H](OC)C2)OC(=O)[C@@H]2CCCCN2C(=O)C(=O)[C@]2(O)O[C@H]1[C@@H](OC)C[C@H]2C (stereo partly drawn) [Compound 168] | nanomolar
33 | CO[C@H]1C[C@@H](C)C/C(C)=C/[C@@H](C/C=C/CCC(=O)N2CCC(O)CC2)C(=O)C[C@H](O)[C@@H](C)[C@@H](/C(C)=C/[C@@H]2CC[C@@H](O)[C@H](OC)C2)OC(=O)[C@@H]2CCCCN2C(=O)C(=O)[C@]2(O)O[C@H]1[C@@H](OC)C[C@H]2C [Compound 170] | nanomolar
